Results published in the supplement of paper PMC8728848.
Some of the results follow.

Legend:
Test in all cases: glycan array binding signal (z-score within array); higher = stronger binding
Settings in all cases: glycan notation: IUPAC condensed, linker removed
[1] = biological target: Neu5Ac(a2-3)Gal(b1-4)GlcNAc(b1-3)[Neu5Ac(a2-3)Gal(b1-4)GlcNAc(b1-6)]GalNAc
Procedure, shortened: (§1)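 The binding signal is a Z-score computed within each array. Data were drawn from 3228 arrays in the Consortium for Functional Glycomics database, restricted to those with a known protein sequence. Scores were averaged over arrays of the same protein sequence at different concentrations or buffers, and over linkers, and negative values can be taken as non-binding.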

[2] = biological target: Neu5Ac(a2-3)Gal(b1-4)GlcNAc(b1-6)GalNAc
Procedure, shortened: as §1

[3] = biological target: Neu5Ac(a2-3)Gal(b1-4)GlcNAc(b1-6)[Gal(b1-3)]GalNAc
Procedure, shortened: as §1

[4] = biological target: Neu5Ac(a2-3)Gal(b1-4)GlcNAc(b1-6)[Neu5Ac(a2-3)Gal(b1-3)]GalNAc
Procedure, shortened: as §1

[5] = biological target: Neu5Ac(a2-3)Gal(b1-4)GlcNAc6S
Procedure, shortened: as §1

[6] = biological target: Neu5Ac(a2-3)Gal(b1-4)[Fuc(a1-3)]GlcNAc
Procedure, shortened: as §1

[7] = biological target: Neu5Ac(a2-3)Gal(b1-4)[Fuc(a1-3)]GlcNAc(b1-2)Man
Procedure, shortened: as §1

[8] = biological target: Neu5Ac(a2-3)Gal(b1-4)[Fuc(a1-3)]GlcNAc(b1-3)Gal
Procedure, shortened: as §1

[9] = biological target: Neu5Ac(a2-3)Gal(b1-4)[Fuc(a1-3)]GlcNAc(b1-3)Gal(b1-4)GlcNAc
Procedure, shortened: as §1

[10] = biological target: Neu5Ac(a2-3)Gal(b1-4)[Fuc(a1-3)]GlcNAc(b1-3)Gal(b1-4)[Fuc(a1-3)]GlcNAc(b1-3)Gal(b1-4)[Fuc(a1-3)]GlcNAc
Procedure, shortened: as §1

[11] = biological target: Neu5Ac(a2-3)Gal(b1-4)[Fuc(a1-3)]GlcNAc(b1-3)GalNAc
Procedure, shortened: as §1

[12] = biological target: Neu5Ac(a2-3)Gal(b1-4)[Fuc(a1-3)]GlcNAc(b1-6)[Gal(b1-3)]GalNAc
Procedure, shortened: as §1

[13] = biological target: Neu5Ac(a2-3)Gal(b1-4)[Fuc(a1-3)]GlcNAc(b1-6)[Neu5Ac(a2-3)Gal(b1-3)]GalNAc
Procedure, shortened: as §1

[14] = biological target: Neu5Ac(a2-3)Gal(b1-4)[Fuc(a1-3)]GlcNAc6S
Procedure, shortened: as §1

[15] = biological target: Neu5Ac(a2-3)Gal6S(b1-4)GlcNAc
Procedure, shortened: as §1

[16] = biological target: Neu5Ac(a2-3)Gal6S(b1-4)[Fuc(a1-3)]GlcNAc
Procedure, shortened: as §1

[17] = biological target: Neu5Ac(a2-3)GalNAc
Procedure, shortened: as §1

[18] = biological target: Neu5Ac(a2-3)GalNAc(b1-4)GlcNAc
Procedure, shortened: as §1

[19] = biological target: Neu5Ac(a2-3)[GalNAc(b1-4)]Gal(b1-4)Glc
Procedure, shortened: as §1

[20] = biological target: Neu5Ac(a2-3)[GalNAc(b1-4)]Gal(b1-4)GlcNAc
Procedure, shortened: as §1

[21] = biological target: Neu5Ac(a2-3)[GalNAc(b1-4)]Gal(b1-4)GlcNAc(b1-3)GalNAc
Procedure, shortened: as §1

[22] = biological target: Neu5Ac(a2-3)[Neu5Ac(a2-6)]GalNAc
Procedure, shortened: as §1

[23] = biological target: Neu5Ac(a2-6)Gal
Procedure, shortened: as §1

[24] = biological target: Neu5Ac(a2-6)Gal(b1-3)GlcNAc(b1-3)[Gal(b1-4)GlcNAc(b1-6)]Gal(b1-4)Glc
Procedure, shortened: as §1

[25] = biological target: Neu5Ac(a2-6)Gal(b1-4)Glc
Procedure, shortened: as §1

[26] = biological target: Neu5Ac(a2-6)Gal(b1-4)GlcNAc
Procedure, shortened: as §1

[27] = biological target: Neu5Ac(a2-6)Gal(b1-4)GlcNAc(b1-2)Man
Procedure, shortened: as §1

[28] = biological target: Neu5Ac(a2-6)Gal(b1-4)GlcNAc(b1-2)Man(a1-3)Man(b1-4)GlcNAc(b1-4)GlcNAc
Procedure, shortened: as §1

[29] = biological target: Neu5Ac(a2-6)Gal(b1-4)GlcNAc(b1-2)Man(a1-3)[Gal(b1-4)GlcNAc(b1-2)Man(a1-6)]Man(b1-4)GlcNAc(b1-4)GlcNAc
Procedure, shortened: as §1

[30] = biological target: Neu5Ac(a2-6)Gal(b1-4)GlcNAc(b1-2)Man(a1-3)[GlcNAc(b1-2)Man(a1-6)]Man(b1-4)GlcNAc(b1-4)GlcNAc
Procedure, shortened: as §1

[31] = biological target: Neu5Ac(a2-6)Gal(b1-4)GlcNAc(b1-2)Man(a1-3)[GlcNAc(b1-4)][Neu5Ac(a2-6)Gal(b1-4)GlcNAc(b1-2)Man(a1-6)]Man(b1-4)GlcNAc(b1-4)GlcNAc
Procedure, shortened: as §1

[32] = biological target: Neu5Ac(a2-6)Gal(b1-4)GlcNAc(b1-2)Man(a1-3)[Man(a1-6)]Man(b1-4)GlcNAc(b1-4)GlcNAc
Procedure, shortened: as §1

[33] = biological target: Neu5Ac(a2-6)Gal(b1-4)GlcNAc(b1-2)Man(a1-3)[Neu5Ac(a2-3)Gal(b1-4)GlcNAc(b1-2)Man(a1-6)]Man(b1-4)GlcNAc(b1-4)GlcNAc
Procedure, shortened: as §1

[34] = biological target: Neu5Ac(a2-6)Gal(b1-4)GlcNAc(b1-2)Man(a1-3)[Neu5Ac(a2-6)Gal(b1-4)GlcNAc(b1-2)Man(a1-6)]Man(b1-4)GlcNAc(b1-4)GlcNAc
Procedure, shortened: as §1

[35] = biological target: Neu5Ac(a2-6)Gal(b1-4)GlcNAc(b1-2)Man(a1-3)[Neu5Ac(a2-6)Gal(b1-4)GlcNAc(b1-2)Man(a1-6)]Man(b1-4)GlcNAc(b1-4)[Fuc(a1-6)]GlcNAc
Procedure, shortened: as §1

[36] = biological target: Neu5Ac(a2-6)Gal(b1-4)GlcNAc(b1-2)Man(a1-6)Man(b1-4)GlcNAc(b1-4)GlcNAc
Procedure, shortened: as §1

[37] = biological target: Neu5Ac(a2-6)Gal(b1-4)GlcNAc(b1-2)Man(a1-6)[Gal(b1-4)GlcNAc(b1-2)Man(a1-3)]Man(b1-4)GlcNAc(b1-4)GlcNAc
Procedure, shortened: as §1

[38] = biological target: Neu5Ac(a2-6)Gal(b1-4)GlcNAc(b1-2)Man(a1-6)[GlcNAc(b1-2)Man(a1-3)]Man(b1-4)GlcNAc(b1-4)GlcNAc
Procedure, shortened: as §1

[39] = biological target: Neu5Ac(a2-6)Gal(b1-4)GlcNAc(b1-2)Man(a1-6)[Man(a1-3)]Man(b1-4)GlcNAc(b1-4)GlcNAc
Procedure, shortened: as §1

[40] = biological target: Neu5Ac(a2-6)Gal(b1-4)GlcNAc(b1-2)[Neu5Ac(a2-6)Gal(b1-4)GlcNAc(b1-4)]Man(a1-3)[GlcNAc(b1-4)][Neu5Ac(a2-6)Gal(b1-4)GlcNAc(b1-2)[Neu5Ac(a2-6)Gal(b1-4)GlcNAc(b1-6)]Man(a1-6)]Man(b1-4)GlcNAc(b1-4)GlcNAc
Procedure, shortened: as §1

[41] = biological target: Neu5Ac(a2-6)Gal(b1-4)GlcNAc(b1-2)[Neu5Ac(a2-6)Gal(b1-4)GlcNAc(b1-4)]Man(a1-3)[GlcNAc(b1-4)][Neu5Ac(a2-6)Gal(b1-4)GlcNAc(b1-4)Man(a1-6)]Man(b1-4)GlcNAc(b1-4)GlcNAc
Procedure, shortened: as §1

[42] = biological target: Neu5Ac(a2-6)Gal(b1-4)GlcNAc(b1-2)[Neu5Ac(a2-6)Gal(b1-4)GlcNAc(b1-6)]Man(a1-6)[Neu5Ac(a2-6)Gal(b1-4)GlcNAc(b1-2)Man(a1-3)][GlcNAc(b1-4)]Man(b1-4)GlcNAc(b1-4)GlcNAc
Procedure, shortened: as §1

[43] = biological target: Neu5Ac(a2-6)Gal(b1-4)GlcNAc(b1-3)Gal(b1-3)GlcNAc
Procedure, shortened: as §1

[44] = biological target: Neu5Ac(a2-6)Gal(b1-4)GlcNAc(b1-3)Gal(b1-4)GlcNAc
Procedure, shortened: as §1

[45] = biological target: Neu5Ac(a2-6)Gal(b1-4)GlcNAc(b1-3)Gal(b1-4)GlcNAc(b1-2)Man(a1-3)[Neu5Ac(a2-6)Gal(b1-4)GlcNAc(b1-3)Gal(b1-4)GlcNAc(b1-2)Man(a1-6)]GalNAc
Procedure, shortened: as §1

[46] = biological target: Neu5Ac(a2-6)Gal(b1-4)GlcNAc(b1-3)Gal(b1-4)GlcNAc(b1-3)Gal(b1-4)GlcNAc
Procedure, shortened: as §1

B1: Ovorubin (Pomacea canaliculata), J7I2T6 (protein)
chain: MFVATSLLLAIATLVVRASPHNYLIMDIEPPKSVSERDILNLLSPLQVKHSFRVTGSTRLLIVIRLDAQSYEKLDEITVPGKVEVIPAVNMADTMERCGVSWPRVELTDDNVTLFESESTLTDVTKEQLKAMLIGYGEHMSGLLQAHRFEYYQAAGATPHRHFVFVNSVPDEIEVFGREGVDIWGGPGEFVVKPQYVTRI
- glycan array binding signal (z-score) [1]: -0.6
- glycan array binding signal (z-score) [2]: 0.228
- glycan array binding signal (z-score) [3]: -0.463
- glycan array binding signal (z-score) [4]: -0.744
- glycan array binding signal (z-score) [5]: 0.708
- glycan array binding signal (z-score) [6]: -0.593
- glycan array binding signal (z-score) [7]: -0.544
- glycan array binding signal (z-score) [8]: -1.06
- glycan array binding signal (z-score) [9]: 0.448
- glycan array binding signal (z-score) [10]: 0.646
- glycan array binding signal (z-score) [11]: 0.47
- glycan array binding signal (z-score) [12]: -0.527
- glycan array binding signal (z-score) [13]: -0.055
- glycan array binding signal (z-score) [14]: -0.291
- glycan array binding signal (z-score) [15]: 0.599
- glycan array binding signal (z-score) [16]: 0.86
- glycan array binding signal (z-score) [17]: 0.287
- glycan array binding signal (z-score) [18]: -0.374
- glycan array binding signal (z-score) [19]: -0.336
- glycan array binding signal (z-score) [20]: -0.092
- glycan array binding signal (z-score) [21]: -0.397
- glycan array binding signal (z-score) [22]: 0.934
- glycan array binding signal (z-score) [23]: 0.073
- glycan array binding signal (z-score) [24]: -0.285
- glycan array binding signal (z-score) [25]: 0.014
- glycan array binding signal (z-score) [26]: -0.191
- glycan array binding signal (z-score) [27]: 0.654
- glycan array binding signal (z-score) [28]: 0.036
- glycan array binding signal (z-score) [29]: 0.133
- glycan array binding signal (z-score) [30]: -1.23
- glycan array binding signal (z-score) [31]: 0.487
- glycan array binding signal (z-score) [32]: -1.01
- glycan array binding signal (z-score) [33]: -0.478
- glycan array binding signal (z-score) [34]: 0.177
- glycan array binding signal (z-score) [35]: -0.129
- glycan array binding signal (z-score) [36]: 0.429
- glycan array binding signal (z-score) [37]: 0.032
- glycan array binding signal (z-score) [38]: -0.738
- glycan array binding signal (z-score) [39]: -0.358
- glycan array binding signal (z-score) [40]: 3.19
- glycan array binding signal (z-score) [41]: 0.349
- glycan array binding signal (z-score) [42]: -0.646
- glycan array binding signal (z-score) [43]: 0.712
- glycan array binding signal (z-score) [44]: -0.75
- glycan array binding signal (z-score) [45]: -0.502
- glycan array binding signal (z-score) [46]: 0.311
